# Experimental data from PubChem BioAssay (NCATS).
# Chains of the proteins cited; added tags and fusions are not shown. Lines headed by an entry give the natural chain unless they say otherwise; changes in a name come on top.
# UniProt Q03181: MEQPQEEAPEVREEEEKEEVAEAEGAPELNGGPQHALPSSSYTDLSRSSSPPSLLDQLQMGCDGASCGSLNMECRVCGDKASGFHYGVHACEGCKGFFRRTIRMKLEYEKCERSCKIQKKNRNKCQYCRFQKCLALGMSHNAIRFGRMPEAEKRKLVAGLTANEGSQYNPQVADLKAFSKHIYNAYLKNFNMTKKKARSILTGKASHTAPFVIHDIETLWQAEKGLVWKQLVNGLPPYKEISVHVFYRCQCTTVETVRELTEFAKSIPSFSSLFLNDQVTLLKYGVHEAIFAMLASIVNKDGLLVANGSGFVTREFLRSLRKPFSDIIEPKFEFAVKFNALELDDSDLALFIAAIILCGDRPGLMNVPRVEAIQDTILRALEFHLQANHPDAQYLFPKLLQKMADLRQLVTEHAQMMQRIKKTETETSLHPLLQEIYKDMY
# Several values for one entry are separate records, joined by “and”; a condition that tells them apart may be missing. Identical values can stand only once. The shares of active, inactive and inconclusive entries below differ from those in the screen. A potency beside an inconclusive call is a rough fit, not a confirmed value. For some assays here: A note “side channel” means that the fit belongs to a control or component signal, not to the main read-out. Activity calls are given as the source filed them. Unless noted, calls follow the shape of the full dose curve.
# Molecular target: Peroxisome proliferator-activated receptor delta (Homo sapiens) (UniProt Q03181)
# Assay: qHTS assay for small molecule antagonists of peroxisome proliferator-activated receptor delta signaling (AID 588535; active = well fitted inhibition curve with a large enough effect in the signal ratio, with a control signal flat, not every such curve was filed as active; inconclusive = small, poorly fitted or top-dose-only effect, or effect the other way, or a change in a side signal; inactive = no such curve, though single readings can be large or run the other way; the % refers to the signal ratio)
# Settings: HEK293T PPARd-UAS-bla, beta-lactamase FRET ratio, 18 h; activity change, negative = inhibition: at 76.7 µM (top of the series)
# Method in brief: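 GeneBLAzer PPAR-delta-UAS-bla HEK293T cells in medium with 2% charcoal/dextran FBS were preincubated 5 hrs at 37 C, then given compounds, incubated 18 hrs at 37 C, and read by CCF4 beta-lactamase fluorescence; IC50 from Hill fits.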
# Potency is read from the fitted curve at half-maximal effect.
SMILES,Potency,"activity change, negative = inhibition"
CC[C@H](C)C(=O)O[C@H]1C[C@@H](C)C=C2C=C[C@H](C)[C@H](CC[C@@H]3C[C@@H](O)CC(=O)O3)[C@H]21,"inconclusive: 11.2 µM [activator, full curve, poor fit]",
NC(=O)c1cnccn1,"inconclusive: 7.94 µM [inhibitor, full curve, poor fit] and inactive",
Cc1ccc(-c2cc(C(F)(F)F)nn2-c2ccc(S(N)(=O)=O)cc2)cc1,"inconclusive: 35.5 µM [fluorescent, side channel, partial curve, poor fit]",
Nc1ccc(S(N)(=O)=O)cc1,,inconclusive: 2.31%
NS(=O)(=O)c1cc2c(cc1Cl)NC=NS2(=O)=O,inactive,
Cc1cn([C@H]2C[C@H](N=[N+]=[N-])[C@@H](CO)O2)c(=O)[nH]c1=O,,inconclusive: 3.95%
COc1c2occc2cc2ccc(=O)oc12,,inconclusive: -3.48%
CC1=NN(c2ccccc2)C(=O)C1,,inconclusive: 5.26%
COc1ccc2nc(S(=O)Cc3ncc(C)c(OC)c3C)[nH]c2c1 (centres undefined),"inconclusive: 63.1 µM [fluorescent, side channel, single point]",
CC(C)(Oc1ccc(C2CC2(Cl)Cl)cc1)C(=O)O (centres undefined),inactive,
O=C1CCC(N2C(=O)c3ccccc3C2=O)C(=O)N1 (centres undefined),inactive,
CC(=O)N1CCN(c2ccc(OC[C@H]3CO[C@](Cn4ccnc4)(c4ccc(Cl)cc4Cl)O3)cc2)CC1,,inconclusive: -60.5%
N[C@@H](Cc1ccc(O)c(O)c1)C(=O)O,,inconclusive: 7.82%

# Molecular target: Peroxisome proliferator-activated receptor gamma (Homo sapiens) (UniProt P37231)
# Assay: qHTS assay for small molecule agonists of peroxisome proliferator-activated receptor gamma signaling (AID 588536; active = well fitted curve in the direction sought with a large enough effect in the signal ratio, with a control signal flat, not every such curve was filed as active; inconclusive = small, poorly fitted or top-dose-only effect, or effect the other way, or a change in a side signal; inactive = no such curve, though single readings can be large or run the other way; the % refers to the signal ratio;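 as to activation: 0% = DMSO basal wells and 100% = rosiglitazone at 2 µM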)
# Settings: HEK293 PPARg-UAS-bla, beta-lactamase ratio, 16 h; activation: at 76.7 µM (top of the series), percent of rosiglitazone response, DMSO as zero
# Method in brief: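 Test agents, titrated, stimulated HEK293 UAS-bla cells overnight (16 h, 37 C). Substrate CCF4 was then added for two hours at room temperature before fluorescence reading.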
SMILES,activation,Potency
COc1ccc2[nH]cc(CCNC(C)=O)c2c1,inconclusive: -13.8%,
Cc1ccc(-c2cc(C(F)(F)F)nn2-c2ccc(S(N)(=O)=O)cc2)cc1,inconclusive: -14.6%,
O=C1c2cccc(O)c2C(=O)c2c(O)cc(CO)cc21,inconclusive: 25.6%,
O=C(O)CCCc1c[nH]c2ccccc12,,"inconclusive: 44.7 µM [activator, partial curve]"
Cc1cc(NS(=O)(=O)c2ccc(N)cc2)no1,,inactive
NS(=O)(=O)c1cc2c(cc1Cl)NC=NS2(=O)=O,,inactive
CC(C)(Sc1ccc(CCN(CCCCC2CCCCC2)C(=O)NC2CCCCC2)cc1)C(=O)O,inconclusive: 6.76%,
COc1cc2c(c(OC)c1OC)-c1ccc(OC)c(=O)cc1[C@@H](NC(C)=O)CC2,inconclusive: -6.8% and inconclusive: -5.75% and inconclusive: -9.5%,
CC1=NN(c2ccccc2)C(=O)C1,inconclusive: 11.3%,
CC(C)(Oc1ccc(C2CC2(Cl)Cl)cc1)C(=O)O (centres undefined),,"inconclusive: 25.1 µM [activator, partial curve]"

# Molecular target: Peroxisome proliferator-activated receptor gamma (Homo sapiens) (UniProt P37231)
# Assay: qHTS assay for small molecule antagonists of peroxisome proliferator-activated receptor gamma signaling (AID 588537; active = well fitted inhibition curve with a large enough effect in the signal ratio, with a control signal flat, not every such curve was filed as active; inconclusive = small, poorly fitted or top-dose-only effect, or effect the other way, or a change in a side signal; the % refers to the signal ratio;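 as to activity, negative = inhibition: reporter cells co-stimulated with 50 nM rosiglitazone agonist during compound treatment; % of control where 0% means no effect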)
# Settings: HEK293 PPARg-UAS-bla, beta-lactamase ratio, antagonist mode; activity, negative = inhibition: at 76.8 µM (top of the series)
# Method in brief: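 PPAR-gamma-UAS-bla HEK293 cells (3000/well, 1% charcoal/dextran-stripped FBS) were preincubated 6-6.5 h at 37 C, given titrated compounds, then stimulated with 50 nM rosiglitazone for 16 h. Beta-lactamase activity was read with CCF4 dye; IC50 came from Hill fits.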
SMILES,Potency,"activity, negative = inhibition"
CC[C@H](C)C(=O)O[C@H]1C[C@@H](C)C=C2C=C[C@H](C)[C@H](CC[C@@H]3C[C@@H](O)CC(=O)O3)[C@H]21,"inconclusive: 50.1 µM [side channel, rising, single point]",
COc1ccc2[nH]cc(CCNC(C)=O)c2c1,,inconclusive: 7.49%
OC[C@@H](O)[C@@H](O)[C@H](O)[C@@H](O)CO,,inconclusive: -2.23%
Cc1ccc(-c2cc(C(F)(F)F)nn2-c2ccc(S(N)(=O)=O)cc2)cc1,"inconclusive: 50.1 µM [side channel, rising, single point]",
O=C1c2cccc(O)c2C(=O)c2c(O)cc(CO)cc21,inactive,
Cc1cc(NS(=O)(=O)c2ccc(N)cc2)no1,,inconclusive: 9.25%
CC(C)(Sc1ccc(CCN(CCCCC2CCCCC2)C(=O)NC2CCCCC2)cc1)C(=O)O,,inconclusive: -129%
Cc1cn([C@H]2C[C@H](N=[N+]=[N-])[C@@H](CO)O2)c(=O)[nH]c1=O,,inconclusive: 6.14%
CC1=NN(c2ccccc2)C(=O)C1,"inconclusive: 39.8 µM [inhibitor, partial curve]",inconclusive: -37.1%
COc1ccc2nc(S(=O)Cc3ncc(C)c(OC)c3C)[nH]c2c1 (centres undefined),inactive,
CC(C)(Oc1ccc(C2CC2(Cl)Cl)cc1)C(=O)O (centres undefined),inactive,

# Molecular target: Vitamin D3 receptor (Homo sapiens) (UniProt P11473)
# Assay: qHTS assay for small molecule antagonists of vitamin D receptor signaling (AID 588541);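 as to activity change, negative = inhibition: receptor activated by calcitriol during compound treatment; % is scaled to controls: 0 for no effect and ±100 for the full control effect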
# Settings: HEK293T VDR-UAS-bla, beta-lactamase ratio, antagonist mode; activity change, negative = inhibition: at 76.7 µM (top of the series)
SMILES,"activity change, negative = inhibition",Potency
NC(=O)c1cnccn1,inconclusive: 1.3%,
CC(C)(Sc1ccc(CCN(CCCCC2CCCCC2)C(=O)NC2CCCCC2)cc1)C(=O)O,,"inconclusive: 35.5 µM [side channel, rising, partial curve]"
Cc1cn([C@H]2C[C@H](N=[N+]=[N-])[C@@H](CO)O2)c(=O)[nH]c1=O,,inactive
COc1ccc2nc(S(=O)Cc3ncc(C)c(OC)c3C)[nH]c2c1 (centres undefined),inconclusive: -18.1%,

# Molecular target: Vitamin D3 receptor (Homo sapiens) (UniProt P11473)
# Assay: qHTS assay for small molecule agonists of vitamin D receptor signaling (AID 588543);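 as to activation: 0% = DMSO basal and 100% = reference agonist control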
# Settings: HEK293T VDR-UAS-bla, beta-lactamase ratio, 16 h; activation: at 76.8 µM (top of the series)
# Method in brief: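 Agonist-mode beta-lactamase reporter: HEK293T VDR-UAS-bla cells in charcoal-stripped 2% FBS, compound series 16 h 37 C, CCF4 2 h RT. EC50 from Hill fit, scaled against DMSO and 50 nM calcitriol control.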
SMILES,Potency,activation
NC(=O)c1cnccn1,"inconclusive: 0.001 µM [side channel, falling, full curve, poor fit]",
CC(C)(Sc1ccc(CCN(CCCCC2CCCCC2)C(=O)NC2CCCCC2)cc1)C(=O)O,"inconclusive: 14.1 µM [fluorescent, side channel, partial curve]",
COc1c2occc2cc2ccc(=O)oc12,"inconclusive: 50.1 µM [side channel, rising, single point]",
CC(=O)N1CCN(c2ccc(OC[C@H]3CO[C@](Cn4ccnc4)(c4ccc(Cl)cc4Cl)O3)cc2)CC1,,inconclusive: 21.3%
N[C@@H](Cc1ccc(O)c(O)c1)C(=O)O,"inconclusive: 0.0035 µM [side channel, falling, full curve, poor fit]",
